{"source": "patent US9061013B2", "about": "“Isoxazoline derivatives as antiparasitic agents” (Zoetis LLC, priority 2011, dated 2015)", "note": "Some of these results come from one statement about several compounds together. At least one read-out could not be matched to a standard name with certainty."}
{"tested_on": "Ctenocephalides felis", "assay": "Flea (Ctenocephalides felis) Membrane Feed Assay-Adult", "conditions": "adult fleas fed citrated bovine blood approximately 2 hours; knockdown and/or death at approximately 2 and 24 hours", "units": {"lethal dose 80% (LD^80)": "µg/mL"}}
{"smiles": "O=C(CNC(=O)C1CC(F)(c2ccc(C3=NOC(c4cc(Cl)c(Cl)c(Cl)c4)(C(F)(F)F)C3)cc2)C1)NCC(F)(F)F", "note": "(stereo not drawn) [Example 15, 3-fluoro-N-(2-oxo-2-((2,2,2-trifluoroethyl)amino)ethyl)-3-(4-(5-(3,4,5-trichlorophenyl)-5-(trifluoromethyl)-4,5-dihydroisoxazol-3-yl)phenyl)cyclobutanecarboxamide]", "lethal dose 80% (LD^80)": "≤ 30"}
{"smiles": "O=C(NC1CC1)C1CC(F)(c2ccc(C3=NOC(c4cc(Cl)c(Cl)c(Cl)c4)(C(F)(F)F)C3)cc2)C1", "note": "(stereo not drawn) [Example 5, 3-fluoro-3-{4-[5-(3,4,5-trichloro-phenyl)-5-trifluoromethyl-4,5-dihydro-isoxazol-3-yl]-phenyl}-cyclobutanecarboxylic acid cyclopropylamide]", "lethal dose 80% (LD^80)": "≤ 3"}
{"smiles": "CN(C)C(=O)C1CC(F)(c2ccc(C3=NOC(c4cc(Cl)c(Cl)c(Cl)c4)(C(F)(F)F)C3)cc2)C1", "note": "(stereo not drawn) [Example 11, 3-fluoro-3-{4-[5-(3,4,5-trichloro-phenyl)-5-trifluoromethyl-4,5-dihydro-isoxazol-3-yl]-phenyl}-cyclobutanecarboxylic acid dimethylamide]", "lethal dose 80% (LD^80)": "≤ 30"}
{"smiles": "O=C(NCC(F)(F)F)C1CC(O)(c2ccc(C3=NOC(c4cc(Cl)c(Cl)c(Cl)c4)(C(F)(F)F)C3)cc2)C1", "note": "(stereo not drawn) [Example 1, 3-hydroxy-3-{4-[5-(3,4,5-trichloro-phenyl)-5-trifluoromethyl-4,5-dihydro-isoxazol-3-yl]-phenyl}-cyclobutanecarboxylic acid (2,2,2-trifluoro-ethyl)-amide]", "lethal dose 80% (LD^80)": "≤ 30"}
{"smiles": "CNC(=O)C1CC(O)(c2ccc(C3=NOC(c4cc(Cl)c(Cl)c(Cl)c4)(C(F)(F)F)C3)cc2)C1", "note": "(stereo not drawn) [Example 3, 3-hydroxy-3-{4-[5-(3,4,5-trichloro-phenyl)-5-trifluoromethyl-4,5-dihydro-isoxazol-3-yl]-phenyl}-cyclobutanecarboxylic acid methylamide]", "lethal dose 80% (LD^80)": "≤ 30"}
{"smiles": "CNC(=O)C1CC(F)(c2ccc(C3=NOC(c4cc(Cl)c(Cl)c(Cl)c4)(C(F)(F)F)C3)cc2)C1", "note": "(stereo not drawn) [Example 10, 3-fluoro-3-{4-[5-(3,4,5-trichloro-phenyl)-5-trifluoromethyl-4,5-dihydro-isoxazol-3-yl]-phenyl}-cyclobutanecarboxylic acid methylamide]", "lethal dose 80% (LD^80)": "≤ 30"}
{"smiles": "O=C(NC1CC1)C1CC(O)(c2ccc(C3=NOC(c4cc(Cl)c(Cl)c(Cl)c4)(C(F)(F)F)C3)cc2)C1", "note": "(stereo not drawn) [Example 2, 3-hydroxy-3-{4-[5-(3,4,5-trichloro-phenyl)-5-trifluoromethyl-4,5-dihydro-isoxazol-3-yl]-phenyl}-cyclobutanecarboxylic acid cyclopropylamide]", "lethal dose 80% (LD^80)": "≤ 30"}
{"smiles": "O=C(NC1CC(F)(c2ccc(C3=NOC(c4cc(Cl)c(Cl)c(Cl)c4)(C(F)(F)F)C3)cc2)C1)C1CC1", "note": "(stereo not drawn) [Example 24, N-(3-fluoro-3-(4-(5-(3,4,5-trichlorophenyl)-5-(trifluoromethyl)-4,5-dihydroisoxazol-3-yl)phenyl)cyclobutyl)cyclopropanecarboxamide]", "lethal dose 80% (LD^80)": "≤ 30"}
{"smiles": "CC(C)NC(=O)C1CC(F)(c2ccc(C3=NOC(c4cc(Cl)c(Cl)c(Cl)c4)(C(F)(F)F)C3)cc2)C1", "note": "(stereo not drawn) [Example 13]", "lethal dose 80% (LD^80)": "≤ 30"}
{"smiles": "CCNC(=O)C1CC(F)(c2ccc(C3=NOC(c4cc(Cl)c(Cl)c(Cl)c4)(C(F)(F)F)C3)cc2)C1", "note": "(stereo not drawn) [Example 14, 3-fluoro-3-{4-[5-(3,4,5-trichloro-phenyl)-5-trifluoromethyl-4,5-dihydro-isoxazol-3-yl]-phenyl}-cyclobutanecarboxylic acid ethylamide]", "lethal dose 80% (LD^80)": "≤ 30"}
{"smiles": "CN(C)C(=O)C1CC(O)(c2ccc(C3=NOC(c4cc(Cl)c(Cl)c(Cl)c4)(C(F)(F)F)C3)cc2)C1", "note": "(stereo not drawn) [Example 4, 3-hydroxy-3-{4-[5-(3,4,5-trichloro-phenyl)-5-trifluoromethyl-4,5-dihydro-isoxazol-3-yl]-phenyl}-cyclobutanecarboxylic acid dimethylamide]", "lethal dose 80% (LD^80)": "≤ 30"}
{"smiles": "CS(=O)(=O)CC(=O)NC1CC(F)(c2ccc(C3=NOC(c4cc(Cl)c(Cl)c(Cl)c4)(C(F)(F)F)C3)cc2)C1", "note": "(stereo not drawn) [Example 25, N-(3-fluoro-3-(4-(5-(3,4,5-trichlorophenyl)-5-(trifluoromethyl)-4,5-dihydroisoxazol-3-yl)phenyl)cyclobutyl)-2-(methylsulfonyl)acetamide]", "lethal dose 80% (LD^80)": "≤ 30"}
